Target: Dicer (human) (UniProt Q9UPY3)
Experiment: enzyme reaction in vitro
Conditions: PS backbone; two copies of the strand joined at 5' ends through glycerol linker X, two free 3' ends; 10 nM target and 10 nM oligo, 0.025 U Dicer, 37 C 1 h; text states only that the compounds of the invention give an optimal structure for binding and cleavage; purified recombinant protein; protein details: Invitrogen human Dicer enzyme; label: 5'-32P on target RNA

Chains of the proteins cited; added tags and fusions are not shown. Lines headed by an entry give the natural chain unless they say otherwise; changes in a name come on top.
UniProt Q9UPY3: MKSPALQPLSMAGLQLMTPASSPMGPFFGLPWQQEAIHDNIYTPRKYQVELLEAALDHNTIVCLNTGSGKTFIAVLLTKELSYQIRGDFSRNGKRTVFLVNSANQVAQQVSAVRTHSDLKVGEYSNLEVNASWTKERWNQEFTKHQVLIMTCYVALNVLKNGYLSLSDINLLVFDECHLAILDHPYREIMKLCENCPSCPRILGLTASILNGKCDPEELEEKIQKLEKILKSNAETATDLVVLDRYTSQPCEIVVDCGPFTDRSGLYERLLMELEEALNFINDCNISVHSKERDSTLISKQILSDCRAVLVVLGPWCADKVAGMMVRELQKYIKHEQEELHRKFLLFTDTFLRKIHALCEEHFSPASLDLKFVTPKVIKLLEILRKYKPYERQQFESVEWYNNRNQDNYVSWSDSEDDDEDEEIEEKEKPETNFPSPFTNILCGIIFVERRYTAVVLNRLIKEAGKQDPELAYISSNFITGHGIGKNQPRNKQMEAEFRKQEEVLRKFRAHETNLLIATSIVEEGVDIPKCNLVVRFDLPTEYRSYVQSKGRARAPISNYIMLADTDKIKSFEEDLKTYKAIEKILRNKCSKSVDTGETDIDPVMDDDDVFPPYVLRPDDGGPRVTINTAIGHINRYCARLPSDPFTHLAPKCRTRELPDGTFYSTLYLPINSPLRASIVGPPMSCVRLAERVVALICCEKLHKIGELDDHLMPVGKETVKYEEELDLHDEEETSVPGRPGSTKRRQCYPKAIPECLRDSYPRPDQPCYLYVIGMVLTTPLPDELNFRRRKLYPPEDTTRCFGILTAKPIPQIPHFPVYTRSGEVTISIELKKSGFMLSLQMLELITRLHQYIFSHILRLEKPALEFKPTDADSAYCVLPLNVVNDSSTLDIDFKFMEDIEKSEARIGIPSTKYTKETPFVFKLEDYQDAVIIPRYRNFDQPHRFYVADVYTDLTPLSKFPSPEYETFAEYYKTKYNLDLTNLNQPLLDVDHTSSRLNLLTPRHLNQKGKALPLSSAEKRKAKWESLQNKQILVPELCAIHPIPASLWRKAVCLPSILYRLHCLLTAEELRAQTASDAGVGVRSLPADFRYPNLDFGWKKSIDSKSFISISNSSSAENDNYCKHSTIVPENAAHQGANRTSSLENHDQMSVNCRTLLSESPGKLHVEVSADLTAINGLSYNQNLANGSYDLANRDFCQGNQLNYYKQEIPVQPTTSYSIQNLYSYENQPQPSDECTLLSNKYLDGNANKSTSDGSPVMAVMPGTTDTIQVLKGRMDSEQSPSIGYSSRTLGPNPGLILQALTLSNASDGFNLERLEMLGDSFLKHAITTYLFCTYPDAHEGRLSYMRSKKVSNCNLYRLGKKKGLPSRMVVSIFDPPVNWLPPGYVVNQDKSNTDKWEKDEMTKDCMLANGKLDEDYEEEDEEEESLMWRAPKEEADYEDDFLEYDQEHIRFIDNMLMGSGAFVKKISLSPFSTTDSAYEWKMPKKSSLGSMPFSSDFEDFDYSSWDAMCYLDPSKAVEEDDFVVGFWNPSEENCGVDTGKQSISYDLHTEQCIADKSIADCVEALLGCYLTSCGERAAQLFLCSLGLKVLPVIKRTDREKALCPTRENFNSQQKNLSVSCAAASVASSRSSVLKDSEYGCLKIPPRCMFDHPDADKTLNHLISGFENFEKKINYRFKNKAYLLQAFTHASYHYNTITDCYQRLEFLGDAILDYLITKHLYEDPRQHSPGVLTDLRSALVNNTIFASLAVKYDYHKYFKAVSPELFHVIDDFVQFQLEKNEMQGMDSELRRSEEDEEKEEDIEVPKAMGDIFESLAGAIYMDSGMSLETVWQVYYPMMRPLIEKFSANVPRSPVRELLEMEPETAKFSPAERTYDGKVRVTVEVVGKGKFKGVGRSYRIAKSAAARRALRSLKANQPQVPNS

AAUGCUUGUCUGUGCAGUCC / GGACUGCACAGACAAGCAUU
activity on this sequence: active
